Values from PubChem BioAssay AID602196 (INSERM, 2012).
The deposit covers about 23,000 reagents; this is a part drawn at random. Of all reagents, 455 (2%) were called active. 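Active includes both protection and sensitisation; some change values fall well beyond the stated -50 to +50 range.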 Further read-outs or replicates are left out here. The record does not give: the amount of reagent.

Test: 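Modifiers of cisplatin sensitivity in A549 cells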
System: human A549 lung cancer cells
Reagent: siRNA pair against human genes
Timing: 48 h transfection before cisplatin; time from cisplatin to read-out not stated
Challenge: cisplatin at a dose killing half of control-siRNA cells; exact dose and duration not given
Detection: 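Shift in cisplatin death relative to control siRNA, from -50 (all cells die) to +50 (no cells die); siRNAs harmful on their own scored 0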
Direction: two-siRNA summed score (-2 to +2): higher = both siRNAs protect from cisplatin killing; -2 means both sensitise; mean protection from cisplatin (shift in death): higher = protection from cisplatin killing
Active means: 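siRNAs harmful alone (LDH or WST-1) get 0; others get +1 for less and -1 for more cisplatin killing; genes are active when the two siRNAs give the same sign, summing to ±2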
Meaning of the calls: active = both siRNAs shift cisplatin killing the same way; inactive = no consistent shift, or siRNA harmful alone

After knock-down of FMNL1 the results were two-siRNA summed score (-2 to +2) = 0; mean protection from cisplatin (shift in death) (%) = -6.1; inactive.
Depletion of LOC441839 gave: two-siRNA summed score (-2 to +2) = 0; mean protection from cisplatin (shift in death) (%) = 9.7; inactive.
For MS4A7 the deposit lists two-siRNA summed score (-2 to +2) = -1; mean protection from cisplatin (shift in death) (%) = -17.1; inactive.
Silencing of GLB1L2 resulted in: two-siRNA summed score (-2 to +2) = 1; mean protection from cisplatin (shift in death) (%) = 15.1; inactive.
LOC441869 showed two-siRNA summed score (-2 to +2) = 0; mean protection from cisplatin (shift in death) (%) = 25.1; inactive.
After knock-down of LOC400567, the record shows two-siRNA summed score (-2 to +2) = 1; mean protection from cisplatin (shift in death) (%) = 18.6; inactive.

2 entries already listed, sorted by “two-siRNA summed score (-2 to +2)”, high to low.
GLB1L2 — two-siRNA summed score (-2 to +2) = 1; mean protection from cisplatin (shift in death) (%) = 15.1; outcome = inactive
MS4A7 — two-siRNA summed score (-2 to +2) = -1; mean protection from cisplatin (shift in death) (%) = -17.1; outcome = inactive

Further entries follow.
For SOX10, the values are two-siRNA summed score (-2 to +2) = 0; mean protection from cisplatin (shift in death) (%) = -6.9; inactive.
With knock-down of FKBP8, the screen gave two-siRNA summed score (-2 to +2) = 0; mean protection from cisplatin (shift in death) (%) = -14.5; inactive.
After knock-down of DNALI1 the results were two-siRNA summed score (-2 to +2) = 1; mean protection from cisplatin (shift in death) (%) = 14.1; inactive.
With knock-down of PTPA, the record shows two-siRNA summed score (-2 to +2) = 0; mean protection from cisplatin (shift in death) (%) = 0.3; inactive.
GNPDA2 showed two-siRNA summed score (-2 to +2) = 0; mean protection from cisplatin (shift in death) (%) = 13.1; inactive.
Depletion of SPMIP10 resulted in: two-siRNA summed score (-2 to +2) = 0; mean protection from cisplatin (shift in death) (%) = -2.3; inactive.
